# Data taken from PubChem BioAssay AID493014 (National Center for Advancing Translational Sciences (NCATS), 2011).
# About 170 (0.05%) of roughly 340,000 compounds were called active. Inconclusive results, whose numbers are uncertain, are shown with a selection of clear calls. Calls come from the whole dose curve; as a rule, active = well fitted inhibition curve with a large enough effect in the signal ratio, with a control signal flat (not every such curve was filed as active); inconclusive = small, poorly fitted or top-dose-only effect, or effect the other way, or a change in a side signal; inactive = flat fitted curve, though single readings scatter; the % refers to the signal ratio. A potency beside an inconclusive call is a rough fit, not a confirmed value.
# Assay: qHTS Assay to Find Inhibitors of Chronic Active B-Cell Receptor Signaling;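 for activity change, negative = inhibition: plate controls were basal doxycycline-induced cells for no effect and cells given 10 µM MG132 for full effect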
# Details: ABC-DLBCL IkBa-CBG/CBR reporter, luminescence ratio (green luciferase fused to IkBa over red control in TMD8 lymphoma cells), 4 h; activity change, negative = inhibition: at 46.1 µM (top of the series) unless noted
# Outline: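 Concentration-response series (up to 46 uM) were applied to TMD8 dual-reporter cells for 4 h at 37C with doxycycline. Green/red ratio, after filter-overlap correction, defined %Activity; red signal alone was normalised to basal cells and zero luminescence.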
# Potency is the fitted concentration of half-maximal effect.
SMILES,"activity change, negative = inhibition",Potency
O=c1n(Cc2ccccc2)c2cc(Cl)cnc2n1Cc1ccccc1,inconclusive: 8.33%,–
COc1ccc2cc(CCNC(=O)c3cccs3)c(=O)[nH]c2c1,inactive: -0.236%,–
CC(C)C(NS(=O)(=O)c1ccccc1F)C(=O)N1CCc2ccccc2C1 (stereo unspecified),inactive: -4.97%,–
COc1cc(OC)cc(C(=O)N[C@H](C(=O)Nc2nc3ccc(S(C)(=O)=O)cc3s2)C(C)C)c1,–,"inconclusive: 20 µM [falling, single point]"
COc1cc(/C=C2/NC(=O)NC2=O)ccc1OCC(=O)Nc1ccc(F)cc1,inconclusive: 5.35%,–
O=C(C1CC1)N1N=C(c2ccc(Br)cc2)CC1(O)C(F)(F)F (stereo unspecified),inconclusive: 0.246%,–
CCOc1ccc(-c2cc(N)n(S(=O)(=O)c3ccc(OC)c(OC)c3)n2)cc1,–,"inconclusive: 23.1 µM [falling, single point]"
O=C1c2[nH]nc(-c3ccccc3O)c2C(c2cccc(Cl)c2)N1Cc1ccco1 (stereo unspecified),inconclusive: -2.45%,–
O=C(COC(=O)CSc1cc(Cl)ccc1Cl)NCc1ccc2c(c1)OCO2,–,"inconclusive: 20.6 µM [falling, partial curve, poor fit]"
COC(=O)c1ccc(/C=C/c2c(-c3ccsc3)sc3ccccc23)cc1,inactive: 11.3%,–
CCCCCOC(=O)c1ccc(N2C(=O)C3C4C=CC(C4)C3C2=O)cc1 (stereo unspecified),inconclusive: 12.8%,–
COc1ccc(CNC(=O)c2coc(=O)c3ccccc23)cc1,inconclusive: 3.42%,–
CN=C(N)NCCC[C@H](N)C(=O)O,inconclusive: 2.39%,–
O=C(c1cnn2c(C(F)F)cc(-c3ccccc3)nc12)N1CCc2ccccc21,inactive: -0.423%,–
Cc1cccc(/C=N/NC(=O)c2ccccc2OCc2cccc(Br)c2)n1,–,"inconclusive: 11.2 µM [falling, partial curve, poor fit]"
CC(NC(=O)c1ccco1)C(=O)OCC(=O)N1CCCCCC1 (stereo unspecified),inconclusive: 0.0537%,–
Cc1ccc2nc(N(CCCN(C)C)C(=O)c3ccc(Br)s3)sc2c1,–,"inconclusive: 0.794 µM [falling, full curve, poor fit]"
CCC(=O)c1ccc(OCC(=O)OCC(=O)NC2CCCCCCC2)cc1,inactive: -3.51%,–
CCN(CC)c1ccc(/C=N/NC(=O)c2nnn(-c3nonc3N)c2C(C)C)c(O)c1,inactive: 3.85%,–
CCc1ccc(-c2cn3nc(-c4ccccc4)cnc3n2)cc1,–,"inconclusive: 35.5 µM [falling, single point]"
COc1ccc(Cc2nnc(NC(=O)c3ccc(OC)cc3OC)s2)cc1,inconclusive: -15.4%,–

# Rewritten as tab-separated lines: 3 of the compounds above.
SMILES	activity change, negative = inhibition	Potency
CC(C)C(NS(=O)(=O)c1ccccc1F)C(=O)N1CCc2ccccc2C1 (stereo unspecified)	inactive: -4.97%	–
CCCCCOC(=O)c1ccc(N2C(=O)C3C4C=CC(C4)C3C2=O)cc1 (stereo unspecified)	inconclusive: 12.8%	–
Cc1cccc(/C=N/NC(=O)c2ccccc2OCc2cccc(Br)c2)n1	–	inconclusive: 11.2 µM [falling, partial curve, poor fit]

# (further entries)

SMILES,"activity change, negative = inhibition",Potency
CSc1nc2c(c(-c3ccc(O)cc3)c1C#N)CCC2,inactive: 2.18%,–
Cc1[nH]c2ccccc2c1C(=O)CSc1cccc[n+]1[O-],inconclusive: -24.5%,–
O=C(Nc1ccc(F)cc1F)N1CCN(CCc2ccccc2)CC1,inactive: 0.236%,–
O=[N+]([O-])c1ccc(-c2n(-c3ccccn3)c3ccccc3[n+]2-c2ccccn2)cc1,inconclusive: 2.17%,–
O=c1[nH]c(N/N=C/c2ccc(O)cc2)nc2ccccc12,–,"inconclusive: 29.1 µM [rising, single point]"
COc1ccc(Br)cc1C1CC(=O)N2CN(C)CSC2=C1C#N (stereo unspecified),inactive: -9.68%,–
Cc1cccc(C)c1NC(=S)NN1CCN(C)CC1,–,"inconclusive: 18.4 µM [falling, single point]"
Cc1ccc(Nc2nc(N)c([N+](=O)[O-])c(N3CCC(C)CC3)n2)cc1C,inconclusive: 0.0041%,–
O=C(O)/C=C/c1ccc2ccccc2n1,–,"inconclusive: 23.1 µM [falling, partial curve, poor fit]"
COc1ccccc1NC(=O)Nc1nc(CC(=O)Nc2cccc(F)c2)cs1,inconclusive: -9.12%,–
CCN(CC)c1ccc(C=Nc2ccccc2C)c(O)c1,inactive: -0.106%,–
O=C1NC(Cc2c[nH]c3ccccc23)C(=O)N1Cc1ccc(CN2C(=O)NC(Cc3c[nH]c4ccccc34)C2=O)cc1 (stereo unspecified),inconclusive: -20.8%,–
COc1ccc(C(=O)/C=C/Nc2ccc([N+](=O)[O-])cc2C)cc1OC,inactive: 2.52%,–
CCOC(=O)N1CCC(NC(=O)c2cc(C(=O)Nc3cccc(OC)c3)ccc2CO)CC1,inconclusive: 13.2%,–
C[C@@]12C(=O)Nc3cc(F)c(F)cc3C(=O)N1[C@H]1c3cc(Cl)ccc3OC[C@@H]1[C@@H]2c1ccccc1,inconclusive: 6.92%,–
C[C@@H]1CN([C@H](C)CO)C(=O)c2cccc(NC(=O)Nc3ccc(F)cc3)c2O[C@H]1CN(C)C(=O)Nc1ccc(C(F)(F)F)cc1,inconclusive: -2.07%,–
CCOc1ccc2oc(C(=O)NC(C)(C)CC)c(C)c2c1,inconclusive: 10.4%,–
Cn1ccnc1C(O)c1ccc(OCc2ccccc2)cc1 (stereo unspecified),–,"inconclusive: 16.4 µM [rising, partial curve, poor fit]"
O=C(c1cc(-c2cccs2)on1)N1CCCCC1,inconclusive: 2.06%,–
COc1ccc(-c2cc(C(=O)Nc3ccccc3)on2)cc1,–,"inconclusive: 8.91 µM [falling, partial curve]"
O=C(Nc1ccc(C2SCCS2)cc1)c1ccccc1,–,"inconclusive: 35.5 µM [rising, single point]"

SMILES,"activity change, negative = inhibition",Potency
COc1ccccc1CN(C)C(=O)C(NC(=O)Cc1cccc2ccccc12)C(C)C (stereo unspecified),inconclusive: 3.88%,–
O=C(c1ccc(S(=O)(=O)Nc2ccccc2)cc1)N1CCCCCCC1,inconclusive: 5.22%,–
COC(=O)c1sccc1NC(=S)N1CCCCC1C (stereo unspecified),inconclusive: -22.2%,–
COc1ccc(OC)c(NC(=O)N[C@H](Cc2ccccc2)C(=O)NN)c1,inconclusive: -12.8%,–
C=CCC[C@@H](Cc1ccc(F)cc1)C(=O)OC[C@@H](C)NC(=O)[C@@H](CC=C)CC(=O)N[C@H](CO)Cc1ccccc1,inconclusive: -8.64%,–
NC(=O)COC(=O)c1ccc2noc(-c3ccccc3)c2c1,–,"inconclusive: 35.5 µM [falling, single point]"
Oc1cccc(C(=S)N2CCCCC2)c1,inactive: 8.03%,–
Clc1ccc(CSc2nnc([C@@H]3CCCN3)o2)cc1Cl,inactive: 4.01%,–
N#CCCN1CCCc2cc(N=Nc3ccc(C(F)(F)F)cc3)ccc21,inconclusive: 23.9%,–
CC1CCN(C2=NC(=O)/C(=C/c3ccccc3F)S2)CC1,–,"inconclusive: 20 µM [falling, single point]"
Cc1noc(C)c1COc1cccc(C(=O)NC(C)(C)C)c1,inconclusive: -0.0971%,–
CSc1nc(-c2ccc(Cl)cc2)nn1S(=O)(=O)c1ccc(Cl)cc1,inactive: 6.94%,–
N#C/C(=C(/O)CSc1ccccc1C(=O)O)c1nc2ccccc2s1,inconclusive: -9.05%,–
Cc1cccc2c1OCC/C2=N\NC(=O)COc1ccccc1Cl,inconclusive: 21%,–
S=c1[nH]nc(C2CCCCC2)n1/N=C/C=C/c1ccccc1,inconclusive: 9.91%,–
O=C(CSc1ncnc2nc[nH]c12)c1ccc2ccccc2c1,–,"inconclusive: 18.4 µM [falling, partial curve]"
CCc1ccc(/C=C2/Sc3ccccc3N(CC(=O)NCCCN3CCOCC3)C2=O)cc1,–,"inconclusive: 35.5 µM [falling, single point]"
COc1ccc2nc(SCC(=O)NC3CCCCC3C)[nH]c2c1 (stereo unspecified),inactive: -3.38%,–
Cc1ccc2cc(CCNC(=O)c3cccs3)c(=O)[nH]c2c1C,inconclusive: 4.92%,–
COc1ccccc1N1CCN(S(=O)(=O)CCNC(=O)c2cc(OC)c(OC)c(OC)c2)CC1,inactive: -18%,–
O=C(Nc1cccc(Cl)c1)Nc1nc(-c2ccccc2)cs1,inactive: 6.46%,–

SMILES,"activity change, negative = inhibition",Potency
O=C(CCN1CCc2ccccc2C(c2ccccc2)C1)c1ccc2c(c1)OCCO2 (stereo unspecified),inconclusive: 14.4%,–
Cc1ccc(S(=O)(=O)N2CCC(=O)N(CCOC(=O)Nc3ccccc3C)CC2)cc1,inactive: -0.261%,–
COc1ccc2ccccc2c1C1CC(=O)N2CN(C)CSC2=C1C#N (stereo unspecified),inactive: -17.2%,–
CCn1nc(C)c(/C=N/NC(=O)c2c[nH]c3ccccc23)c1C,inconclusive: -18.1%,–
CCOc1ccccc1NC(=O)CN1CCC(NC(=O)Nc2ccccc2)CC1,–,"inconclusive: 3.16 µM [falling, full curve, poor fit]"
CCN1CCN(c2nc(N(C)c3ccccc3)nc(N)c2[N+](=O)[O-])CC1,inconclusive: 0.464%,–
C=C1CSc2nc(=O)c3c(C)c(C)sc3n21,inconclusive: 1.82%,–
COC(=O)c1ccc(Nc2cc(C)nc3ccc(C)cc23)cc1,–,"inconclusive: 35.5 µM [falling, partial curve, poor fit]"
CCOc1ccccc1NC(=O)C1CCN(C(=O)Cc2ccccc2)CC1,inconclusive: 7.45%,–
N#CC1=C(N)Oc2c(oc(CO)cc2=O)C1c1ccccc1[N+](=O)[O-] (stereo unspecified),–,"inconclusive: 6.31 µM [falling, single point]"
CCOC(=O)CSC1=NC(=O)/C(=C/c2ccc(Br)cc2)S1,inconclusive: -2.39%,–
CC(Sc1nnc2ccccn12)C(N)=O (stereo unspecified),inactive: 0.0933%,–
CCCNc1c(NS(=O)(=O)c2c(F)c(F)c(F)c(F)c2F)c(=O)oc2ccccc12,–,"inconclusive: 12.6 µM [falling, partial curve]"
CC(=O)c1sc(NC(=O)COc2ccc(Br)cc2)nc1C,–,"inconclusive: 22.4 µM [falling, single point]"
Cc1nccn1CCN(C)Cc1cn(Cc2ccccc2)nc1-c1ccc2c(c1)OCO2,inactive: 0.158%,–
Cc1ccc(/C(N)=N/OC(=O)CSc2ccccc2)cc1,–,"inconclusive: 31.6 µM [falling, single point]"
COc1ccc2nc(SCC(=O)Nc3ccc(S(=O)(=O)N4CCCC4)cc3)c(C#N)cc2c1,inactive: 1.4%,–
O=C(O)Cc1ccc(Oc2ncc(C(F)(F)F)cc2Cl)cc1,inactive: 3.72%,–
